Consider 42 sequences from paper PMC7819943, “Rice protein-binding microarrays: a tool to detect cis-acting elements near promoter regions in rice”.

Sequences of proteins named here, by UniProt entry; tags and fusion partners are left off.
UniProt Q0JBA9, entry or part of it: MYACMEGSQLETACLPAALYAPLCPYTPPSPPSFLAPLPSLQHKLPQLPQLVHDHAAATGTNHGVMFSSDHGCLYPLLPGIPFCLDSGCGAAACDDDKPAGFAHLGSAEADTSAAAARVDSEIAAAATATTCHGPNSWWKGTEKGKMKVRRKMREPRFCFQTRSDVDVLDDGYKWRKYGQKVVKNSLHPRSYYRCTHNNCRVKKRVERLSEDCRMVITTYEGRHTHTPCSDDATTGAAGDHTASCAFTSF

The list shows a part of the results.

The target in the experiment is OsWRKY34 (Oryza sativa, UniProt Q0JBA9 1-250). The experiment in a line: protein-binding microarray (RPBM); PBS, 2% BSA, 51.3 ng/ul salmon testes DNA, 50 uM zinc acetate, 200 nM TF, 25 C, 1 h; high values mean tight binding. To be noted: protein: recombinant; tags: N-terminal polyhistidine and DsRed monomer fusion (pET32a); label: CyDye5-dUTP incorporated in the synthesized complementary strand; 3' TTTTT single-stranded linker to array surface; dsDNA, one strand shown. In outline: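 A custom Agilent array was converted to double-stranded form by primer extension with Cy5-dUTP and blocked with 2% BSA. Protein at 200 nM in PBS with 2% BSA, salmon testes DNA and 50 µM zinc acetate was applied for 1 h at 25 °C, followed by washing. The proteins were polyhistidine–DsRed N-terminal fusions of transcription factors, expressed in E. coli BL21-CodonPlus and Ni–NTA-purified. The binding signal is per-feature fluorescence intensity (arbitrary units) from an Axon 4000B scanner.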
Take “CGTGTGTGCTATTTAAGCATGTAATCAGTGTGTGATTAATCGGAGTCACCTAGTGCAG”: the binding signal was 9100 fluorescence intensity (a.u.).
In the case of “GATGCGGCTTCACACAGCTCACACCATTTTCTTCATTATACGGAGTCACCTAGTGCAG”, the binding signal was 8650 fluorescence intensity (a.u.).
With “ACTTTCTTGAATTTAATGCGTGACTCTCCATTCGTCCACACGGAGTCACCTAGTGCAG”, the binding signal is 8360 fluorescence intensity (a.u.).
To “AATTTACCCCTAAGTACTTTTTGGTTCATTTTGTCTCTAACGGAGTCACCTAGTGCAG” belongs 11700 fluorescence intensity (a.u.).
As for “CCATCATCATCTTCCTTTCGTGCTCTAACAATGGCCATGCCGGAGTCACCTAGTGCAG”, the binding signal was 8740 fluorescence intensity (a.u.).
“ACTCGCATCGATCTTTAATTTCTGTTCTCACCTGTACATACGGAGTCACCTAGTGCAG”: the binding signal is 13500 fluorescence intensity (a.u.).
Regarding “CCAGGCCTAACAGTATACCCATTTGAAGCCCAGCTCATCTCGGAGTCACCTAGTGCAG”, the binding signal is 8100 fluorescence intensity (a.u.).
Turning to “ATGTGAACTTAGGTGGGTATATTTTTTTTTTCACGTGCCGCGGAGTCACCTAGTGCAG”, the binding signal was 8630 fluorescence intensity (a.u.).
For the sequence “CTCGTGTAGAGGCTCTCTCTCTCTCTCTCTCTGGGTGGGGCGGAGTCACCTAGTGCAG”, the binding signal is 10200 fluorescence intensity (a.u.).
As for “TCGTTCCTCACGCGCAAAACCGAACCGCCTGCCGAACAACCGGAGTCACCTAGTGCAG”, the figure is 8110 fluorescence intensity (a.u.); as for “GTTGTACTCCCAGTCCCCGGTTTCCCAGTCGAAAGCGTAGCGGAGTCACCTAGTGCAG”, 9250 fluorescence intensity (a.u.).
On to “CTGCGCTCTCCATTGTTTTGTGTTGTGTTTGTTTGCAGTCCGGAGTCACCTAGTGCAG”, for which the binding signal was 17700 fluorescence intensity (a.u.).
With “GGGGAGCTATATTTCGTGATGTCAAAGGCGATGCTCGCTCCGGAGTCACCTAGTGCAG”, the binding signal is 8220 fluorescence intensity (a.u.).
For the sequence “CCCACATAAGCGGCCAATCAATTTTTTCTACGTAGTTTTTCGGAGTCACCTAGTGCAG”, the binding signal is 8380 fluorescence intensity (a.u.).
To “GGATAACTTCGCCGTTAAGTCAAACTCCACTCTTCTTATCCGGAGTCACCTAGTGCAG” belongs 8620 fluorescence intensity (a.u.); to “AGTTTCATGCCGATTTTGGTTTTTGGAGTTCGGTCTTTCTCGGAGTCACCTAGTGCAG”, 15000 fluorescence intensity (a.u.); to “AGACGAGCCCAACCCCTTTTGCTCCTCTCGCCGTTTTGGTCGGAGTCACCTAGTGCAG”, 8520 fluorescence intensity (a.u.).
“CTGGGGACGGTGTGGGTGGTGGTGGTAGTAGTAGTTCTCGCGGAGTCACCTAGTGCAG”: the binding signal is 13800 fluorescence intensity (a.u.).
In the case of “TTTATCTACGTGTTCATGTACTGCTACAATCGCCATAATTCGGAGTCACCTAGTGCAG”, the binding signal was 9020 fluorescence intensity (a.u.).
Take “ATAAACATTGACTCGCCGGAGTAGTTTTGAAACGTTTGACCGGAGTCACCTAGTGCAG”: the binding signal was 9180 fluorescence intensity (a.u.).
As to “CGATTTTTCCCAAAGGGCGGCGGGCGACTAATTTTGTAAACGGAGTCACCTAGTGCAG”, the binding signal is 9420 fluorescence intensity (a.u.).
Take “CGACGCTTTCTTCAGTGGATCTCATACTCTTTGCATTCTACGGAGTCACCTAGTGCAG”: the binding signal is 8490 fluorescence intensity (a.u.).
As for “AGTTGCCTCCAGTTCCTGAAGTTACTTTGGTCTTATTATGCGGAGTCACCTAGTGCAG”, the figure is 9320 fluorescence intensity (a.u.); as for “ACTTTACCGTTGCGGGTGCTCTTGCGCGGCCCTCGAATTCCGGAGTCACCTAGTGCAG”, 8770 fluorescence intensity (a.u.).
Take “CGCTGTCGATCGCCGTCTCCGGCTGGCTCACCTCCGCCAACGGAGTCACCTAGTGCAG”: the binding signal is 9500 fluorescence intensity (a.u.).
To “AGTGGTGATCGCCGCGGTTGGGTTTCTTGGATTGGGCTGTCGGAGTCACCTAGTGCAG” belongs 8720 fluorescence intensity (a.u.); to “TTTAAAAAAGTCAACGGCATAAAACATTTAGGACGATTGTCGGAGTCACCTAGTGCAG”, 9390 fluorescence intensity (a.u.).
On to “AGGGAAGGGATGGTGAGGACAGGCACATGATGGGAAAAATCGGAGTCACCTAGTGCAG”, for which the binding signal was 9380 fluorescence intensity (a.u.).
For “CCTAGCTCCATCTTCGTCCTCGTCCACACAAAATGTTTTCCGGAGTCACCTAGTGCAG”, the binding signal was 9470 fluorescence intensity (a.u.).
With “TATGGATTTAATCATGGTTTCTTTGTCTTTGTTTCTTGTTCGGAGTCACCTAGTGCAG”, the binding signal was 8210 fluorescence intensity (a.u.).
As for “CTTGCCTGTACTGAAGGTTAAAATTTTCTCCTCTTTTTTGCGGAGTCACCTAGTGCAG”, the binding signal is 10700 fluorescence intensity (a.u.).
With “TCCTTGGGTATAATCAATTCCCCTTTTCCACTCGTAATTGCGGAGTCACCTAGTGCAG”, the binding signal is 8280 fluorescence intensity (a.u.).
On to “TAAATTCCACTCCAAAATTTTTCACCCTGTCACATCAGATCGGAGTCACCTAGTGCAG”, for which the binding signal was 8040 fluorescence intensity (a.u.).
As for “GTTTGTTTTGACCCAGCCACATCCCACTCCCTGAAAAAAACGGAGTCACCTAGTGCAG”, the figure is 8130 fluorescence intensity (a.u.); as for “TTCATTAGTCAGGATATATCATTTGTACAAACAACTTTGTCGGAGTCACCTAGTGCAG”, 8580 fluorescence intensity (a.u.).
For the sequence “AATTAGCTGTTGGACACCCGCGGGATTATTTTATCATATCCGGAGTCACCTAGTGCAG”, the binding signal is 9050 fluorescence intensity (a.u.).
Turning to “TAGCCGCTAATCCATGTTTACCTGTCTAAATTTGTTCATCCGGAGTCACCTAGTGCAG”, the binding signal was 9030 fluorescence intensity (a.u.).
“GTTAGTGCCTAGCCCAGTTTGACCGAGTAAAATGAGACATCGGAGTCACCTAGTGCAG”: the binding signal was 8820 fluorescence intensity (a.u.).
With “GCAGTATGTGCTAATGTGCATCAGTTTTTCTTCTACTATACGGAGTCACCTAGTGCAG”, the binding signal was 8740 fluorescence intensity (a.u.).
For “TTTGTTCTCCTTTTTTTTTTGGTGATTTTGTTGTTTCTTGCGGAGTCACCTAGTGCAG”, the binding signal was 9980 fluorescence intensity (a.u.).
As to “TGTCACATTCGTCTCCGGTCCGTACGTTGCTGTATTTTAGCGGAGTCACCTAGTGCAG”, the binding signal is 17100 fluorescence intensity (a.u.).
To “GTTTTGCATGTCCACTTTTAATCTTATCTTCAGAAGATTGCGGAGTCACCTAGTGCAG” belongs 10000 fluorescence intensity (a.u.).
